Results are given in words; binding and its absence hold for the method and conditions named. Binding seen in cells or lysates may run through a third protein. Here binding means that the protein was enriched with, or labelled near, the bait; the list need not be complete. For some assays here: Where a sequence is shown, tags or fusion partners need not be part of it.

The chains behind the UniProt entries cited, without tags or fusion partners. Where a name states a change or a piece, a line headed by the entry shows the natural chain unless it says otherwise. Residues count along the entry.
UniProt P29469, residues 1-200: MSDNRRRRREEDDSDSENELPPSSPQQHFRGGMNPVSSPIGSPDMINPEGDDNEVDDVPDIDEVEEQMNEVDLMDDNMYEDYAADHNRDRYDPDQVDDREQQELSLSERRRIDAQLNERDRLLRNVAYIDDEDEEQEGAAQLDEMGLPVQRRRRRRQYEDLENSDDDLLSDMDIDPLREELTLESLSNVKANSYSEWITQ
UniProt P02293: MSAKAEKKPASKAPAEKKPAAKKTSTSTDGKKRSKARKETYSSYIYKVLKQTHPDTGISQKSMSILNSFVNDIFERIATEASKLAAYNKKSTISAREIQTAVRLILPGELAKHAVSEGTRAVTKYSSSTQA
UniProt P38110: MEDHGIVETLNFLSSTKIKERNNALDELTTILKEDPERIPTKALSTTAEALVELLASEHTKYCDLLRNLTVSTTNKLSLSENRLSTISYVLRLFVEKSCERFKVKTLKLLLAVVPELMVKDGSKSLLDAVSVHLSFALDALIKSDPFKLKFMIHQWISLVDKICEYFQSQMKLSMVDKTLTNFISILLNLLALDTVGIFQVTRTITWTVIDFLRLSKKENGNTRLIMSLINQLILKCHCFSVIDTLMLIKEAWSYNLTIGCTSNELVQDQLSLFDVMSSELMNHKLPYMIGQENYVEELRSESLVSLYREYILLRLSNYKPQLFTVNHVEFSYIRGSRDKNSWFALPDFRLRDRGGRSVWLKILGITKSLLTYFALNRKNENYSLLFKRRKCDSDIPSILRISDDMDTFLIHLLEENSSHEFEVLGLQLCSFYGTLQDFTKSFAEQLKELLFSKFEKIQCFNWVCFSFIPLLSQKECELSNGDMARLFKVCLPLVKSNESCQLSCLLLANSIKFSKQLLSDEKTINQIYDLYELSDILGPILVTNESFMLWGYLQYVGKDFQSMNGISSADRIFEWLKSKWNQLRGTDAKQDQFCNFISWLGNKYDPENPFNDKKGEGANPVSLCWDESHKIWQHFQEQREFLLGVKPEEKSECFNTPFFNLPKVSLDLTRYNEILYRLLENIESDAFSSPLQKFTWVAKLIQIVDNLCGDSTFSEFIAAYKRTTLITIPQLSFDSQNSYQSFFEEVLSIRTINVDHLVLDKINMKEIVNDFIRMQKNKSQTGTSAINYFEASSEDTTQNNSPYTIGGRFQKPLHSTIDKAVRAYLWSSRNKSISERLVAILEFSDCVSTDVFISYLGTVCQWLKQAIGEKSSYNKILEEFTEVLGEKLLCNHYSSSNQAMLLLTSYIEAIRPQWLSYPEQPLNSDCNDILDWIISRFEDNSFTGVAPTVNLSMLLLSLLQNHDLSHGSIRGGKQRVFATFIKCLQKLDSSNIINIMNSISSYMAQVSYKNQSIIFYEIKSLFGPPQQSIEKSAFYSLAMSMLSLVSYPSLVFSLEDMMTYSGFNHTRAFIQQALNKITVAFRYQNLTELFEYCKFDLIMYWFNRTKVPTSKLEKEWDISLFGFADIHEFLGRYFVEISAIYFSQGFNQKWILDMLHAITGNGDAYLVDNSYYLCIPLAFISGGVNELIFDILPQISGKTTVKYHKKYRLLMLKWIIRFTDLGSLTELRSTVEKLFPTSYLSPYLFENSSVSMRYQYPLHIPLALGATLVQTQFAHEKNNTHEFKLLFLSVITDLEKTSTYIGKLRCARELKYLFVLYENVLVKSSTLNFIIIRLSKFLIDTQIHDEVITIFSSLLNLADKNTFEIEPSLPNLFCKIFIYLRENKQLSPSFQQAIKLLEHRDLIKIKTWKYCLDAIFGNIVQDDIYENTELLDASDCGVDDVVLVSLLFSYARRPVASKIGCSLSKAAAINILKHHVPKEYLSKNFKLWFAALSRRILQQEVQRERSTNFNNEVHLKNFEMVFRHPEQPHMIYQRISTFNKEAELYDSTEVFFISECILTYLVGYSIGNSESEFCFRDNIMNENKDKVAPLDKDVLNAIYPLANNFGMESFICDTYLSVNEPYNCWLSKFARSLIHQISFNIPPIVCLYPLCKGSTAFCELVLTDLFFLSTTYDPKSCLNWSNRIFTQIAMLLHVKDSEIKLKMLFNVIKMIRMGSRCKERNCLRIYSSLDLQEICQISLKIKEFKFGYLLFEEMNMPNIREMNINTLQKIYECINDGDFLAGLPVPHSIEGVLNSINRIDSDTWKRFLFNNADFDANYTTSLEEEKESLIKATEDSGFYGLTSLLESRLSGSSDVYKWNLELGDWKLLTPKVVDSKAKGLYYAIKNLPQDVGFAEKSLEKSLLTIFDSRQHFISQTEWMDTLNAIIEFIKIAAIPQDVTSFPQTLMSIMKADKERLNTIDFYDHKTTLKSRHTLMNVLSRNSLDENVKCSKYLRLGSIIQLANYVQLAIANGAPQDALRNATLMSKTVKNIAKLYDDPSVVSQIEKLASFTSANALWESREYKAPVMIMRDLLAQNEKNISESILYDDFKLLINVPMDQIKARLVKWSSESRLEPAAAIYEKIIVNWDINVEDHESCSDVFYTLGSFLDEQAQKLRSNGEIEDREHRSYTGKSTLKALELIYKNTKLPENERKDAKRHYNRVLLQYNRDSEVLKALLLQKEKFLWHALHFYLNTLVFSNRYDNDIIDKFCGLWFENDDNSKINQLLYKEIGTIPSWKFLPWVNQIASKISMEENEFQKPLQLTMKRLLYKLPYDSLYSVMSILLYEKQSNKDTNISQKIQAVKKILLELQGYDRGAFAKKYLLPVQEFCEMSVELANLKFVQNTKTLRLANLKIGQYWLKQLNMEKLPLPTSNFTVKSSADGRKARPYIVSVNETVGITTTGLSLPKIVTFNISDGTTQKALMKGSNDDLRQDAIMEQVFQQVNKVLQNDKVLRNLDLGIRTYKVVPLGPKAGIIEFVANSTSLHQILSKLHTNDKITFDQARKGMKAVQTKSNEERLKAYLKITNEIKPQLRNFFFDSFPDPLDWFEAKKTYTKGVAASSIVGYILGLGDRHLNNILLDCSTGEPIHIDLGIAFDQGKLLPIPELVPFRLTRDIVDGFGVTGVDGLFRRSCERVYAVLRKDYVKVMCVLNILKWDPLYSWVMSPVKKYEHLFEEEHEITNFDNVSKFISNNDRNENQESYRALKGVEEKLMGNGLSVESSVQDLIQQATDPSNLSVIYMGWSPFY

Assay [1] deals with T1, Pol1NT (first 351 amino acids of budding yeast Pol1 fused to Protein A) (S. cerevisiae) (UniProt P13382).
T1 sequence: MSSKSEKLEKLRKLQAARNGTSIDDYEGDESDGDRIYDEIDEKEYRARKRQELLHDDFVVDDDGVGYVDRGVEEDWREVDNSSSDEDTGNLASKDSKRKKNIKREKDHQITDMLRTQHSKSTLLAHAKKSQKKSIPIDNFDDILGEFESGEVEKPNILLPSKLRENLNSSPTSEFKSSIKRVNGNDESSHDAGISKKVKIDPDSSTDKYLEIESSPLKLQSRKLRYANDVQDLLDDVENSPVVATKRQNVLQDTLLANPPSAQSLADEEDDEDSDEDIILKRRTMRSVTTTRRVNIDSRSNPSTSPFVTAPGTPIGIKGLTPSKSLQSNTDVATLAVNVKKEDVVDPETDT
Briefly: affinity purification with mass spectrometry; Protein A-tagged fragments isolated on IgG-coated magnetic beads from G2-M yeast extracts, +DNase; gel lane cut into 40 bands, Orbitrap Velos.

Assay [2] deals with Mcm2NT (Mcm2 1–200 fused to Protein A) (S. cerevisiae) (UniProt P29469). The description is as above.
The target of assay [3] is T1, Pol1NT (first 351 amino acids of budding yeast Pol1 fused to Protein A) (S. cerevisiae). Nature of the assay: affinity purification with mass spectrometry; Protein A-tagged fragments isolated on IgG-coated magnetic beads from G2-M yeast extracts, −DNase; gel lane cut into 40 bands, Orbitrap Velos.
Assay [4] has the same target. Briefly: affinity purification with mass spectrometry; Protein A-tagged fragments isolated on IgG-coated magnetic beads from G2-M yeast extracts, +DNase; gel lane cut into 40 bands, Orbitrap Velos. The source holds these as a separate data set.

For “Histone H2B (budding yeast) (from UniProt P02293)”, the binding result in assay [1] and in assay [2] was “binds” in each case. With “Tel1 checkpoint kinase (budding yeast) (from UniProt P38110 1-2787)”, the binding result in assay [3] and in assay [1] was “binds” each time.

B1: Spt5 (budding yeast) (protein, UniProt P27692 1-1063)
chain: MSDNSDTNVSMQDHDQQFADPVVVPQSTDTKDENTSDKDTVDSGNVTTTESTERAESTSNIPPLDGEEKEAKSEPQQPEDNAETAATEQVSSSNGPATDDAQATLNTDSSEANEIVKKEEGSDERKRPREEDTKNSDGDTKDEGDNKDEDDDEDDDDDDDDEDDDDEAPTKRRRQERNRFLDIEAEVSDDEDEDEDEEDSELVREGFITHGDDEDDEASAPGARRDDRLHRQLDQDLNKTSEEDAQRLAKELRERYGRSSSKQYRAAAQDGYVPQRFLLPSVDTATIWGVRCRPGKEKELIRKLLKKKFNLDRAMGKKKLKILSIFQRDNYTGRIYIEAPKQSVIEKFCNGVPDIYISQKLLIPVQELPLLLKPNKSDDVALEEGSYVRIKRGIYKGDLAMVDQISENNLEVMLKIVPRLDYGKFDEIDPTTQQRKSRRPTFAHRAPPQLFNPTMALRLDQANLYKRDDRHFTYKNEDYIDGYLYKSFRIQHVETKNIQPTVEELARFGSKEGAVDLTSVSQSIKKAQAAKVTFQPGDRIEVLNGEQRGSKGIVTRTTKDIATIKLNGFTTPLEFPISTLRKIFEPGDHVTVINGEHQGDAGLVLMVEQGQVTFMSTQTSREVTITANNLSKSIDTTATSSEYALHDIVELSAKNVACIIQAGHDIFKVIDETGKVSTITKGSILSKINTARARVSSVDANGNEIKIGDTIVEKVGSRREGQVLYIQTQQIFVVSKKIVENAGVFVVNPSNVEAVASKDNMLSNKMDLSKMNPEIISKMGPPSSKTFQQPIQSRGGREVALGKTVRIRSAGYKGQLGIVKDVNGDKATVELHSKNKHITIDKHKLTYYNREGGEGITYDELVNRRGRVPQARMGPSYVSAPRNMATGGIAAGAAATSSGLSGGMTPGWSSFDGGKTPAVNAHGGSGGGGVSSWGGASTWGGQGNGGASAWGGAGGGASAWGGQGTGATSTWGGASAWGNKSSWGGASTWASGGESNGAMSTWGGTGDRSAYGGASTWGGNNNNKSTRDGGASAWGNQDDGNRSAWNNQGNKSNYGGNSTWGGH
On to B1, for which the binding entry in assay [4] is “binds”.
